Source: PubChem BioAssay AID2685 (National Center for Advancing Translational Sciences (NCATS), 2010)
The other results are listed elsewhere or left out. Shown are side measurements of this screen, not its main read-out; they come without a call. Compounds called inactive in the main read-out are mostly missing here. Potencies come from curve fits of mixed quality, noted in brackets.

Assay: qHTS Assay for Lipid Storage Modulators in Drosophila S3 Cells;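 on cell number change: cells counted by Cell Tracker Red CMTPX staining in the red channel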
Settings: BODIPY lipid droplet fluorescence, 18-24 h; for cell number change: measured here: cell count max response, cells fed with added oleic acid
In short: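 Drosophila S3 cells loaded with oleic acid (400 uM, as added) and compounds at several concentrations; lipid droplets imaged by 488-nm laser-scanning cytometry, 500–530 nm intensity and object ratio to cell channel. Percent activity normalized to 20 uM Triacsin C.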

[1] = measured here: cell number channel AC50, cells fed with added oleic acid
[2] = measured here: lipid fluorescence (Fed channel) AC50, cells fed with added oleic acid

Row | Structure (SMILES) | cell number change | AC50 [1] | AC50 [2]
1 | N=c1c2c(-c3ccccc3)c(-c3ccccc3)n(Cc3ccco3)c2ncn1CCCn1ccnc1 | -13.4% | 920 nM [rising, full curve, poor fit] | 
2 | Cc1cccc(-c2noc(-c3ccc(Cl)cc3[N+](=O)[O-])n2)c1 | 5.2% |  | 1460 nM [rising, full curve, poor fit]
3 | COc1ccc(-c2cc(-c3nnc(COC(=O)C4CC4C)o3)c3ccccc3n2)cc1OC (centres undefined) | 6.51% |  | 6510 nM [rising, partial curve, poor fit]
4 | O=C(CSc1nnc(-c2ccc(F)cc2)o1)N1CCCCC1 | 15.8% |  | 1160 nM [falling, single point]
5 | CN1CCC(=NNC(=O)C(=O)NCc2ccccc2)CC1 | 8.65% |  | 16400 nM [falling, partial curve]
6 | C=CCNc1nnc(SC2CC(=O)N(c3ccc(OCCC)cc3)C2=O)s1 (centres undefined) | 5.36% |  | 651 nM [falling, full curve, poor fit]
7 | Cc1ccc(NC(=O)c2cccc3c2C(=O)N(C2CCCCC2)C3)c(C)c1 |  | 103 nM [rising, full curve, poor fit] | 116 nM [rising, single point]
8 | CCN(CC)C(=O)c1ccc(NS(=O)(=O)c2ccc(/C=C/C(=O)O)cc2)cc1 |  |  | 6510 nM [rising, single point]
9 | C=CCn1c(SCc2nc3ccccc3c(=O)[nH]2)nc2sc3c(c2c1=O)CCCC3 | 5.94% |  | 4.61 nM [rising, full curve, poor fit]
10 | Cc1cccc(N2CCN(C(=O)c3ccccc3SCC(=O)N3CCCC3)CC2)c1C | 12.9% |  | 
11 | CC(NC(=S)Nc1ccc(S(N)(=O)=O)cc1)c1ccc2c(c1)OCO2 (centres undefined) | 20.3% |  | 16400 nM [rising, single point]
12 | CCCC(C)NC(=O)COc1ccc(S(=O)(=O)c2ccc(OCC(=O)NC(C)CCC)cc2)cc1 (centres undefined) | -13.5% |  | 25900 nM [falling, single point]
13 | COc1ccc(S(=O)(=O)N[C@H](C(=O)O)C(C)C)cc1 | -68% | 29100 nM [falling, single point] | 2910 nM [falling, full curve]
14 | COc1ccccc1C(=O)Oc1ccc2ccc(=O)oc2c1 | 19.4% |  | 731 nM [rising, full curve]
15 | COCc1ccc(C(=O)N(C)CC2CCCN(CCc3ccc(OC)cc3)C2)o1 (centres undefined) |  |  | 5170 nM [falling, single point]
16 | Cc1cccc(Nc2nc(N)nc(CSc3nccc(C)n3)n2)c1 | 12.9% |  | 820 nM [rising, full curve]
17 | Cc1cccc2sc(NC(=O)CN3C(=O)C4CC=CCC4C3=O)nc12 (centres undefined) |  |  | 5.17 nM [falling, full curve, poor fit]
18 | Cc1ccc(C)c(NC(NC(=O)c2cccnc2)C(Cl)(Cl)Cl)c1 (centres undefined) | 8.91% |  | 4.61 nM [rising, full curve, poor fit]
19 | CNC(=O)c1sccc1SCc1c(Cl)cccc1Cl | 1.45% |  | 2910 nM [rising, partial curve]
20 | O=C(CN1C(=O)NC2(CCOc3ccccc32)C1=O)NCC(F)(F)F (centres undefined) | -9.52% |  | 
21 | CCOC(=O)C1=C(c2ccccc2)O/C(=C(/C(=O)OC)C(F)(F)F)S1 |  |  | 6510 nM [rising, single point]

Random excerpt: 2 records from the list.
Row | Structure (SMILES) | cell number change | AC50 [1] | AC50 [2]
18 | Cc1ccc(C)c(NC(NC(=O)c2cccnc2)C(Cl)(Cl)Cl)c1 (centres undefined) | 8.91% |  | 4.61 nM [rising, full curve, poor fit]
13 | COc1ccc(S(=O)(=O)N[C@H](C(=O)O)C(C)C)cc1 | -68% | 29100 nM [falling, single point] | 2910 nM [falling, full curve]

Further compounds:

Row | Structure (SMILES) | cell number change | AC50 [1] | AC50 [2]
22 | CN(Cc1cccnc1)C(=O)CNC(=O)COc1ccccc1 | 0.806% |  | 
23 | CCOc1ccccc1NC(=S)NNS(=O)(=O)c1c(C)cc(C)cc1C | 23.1% |  | 4610 nM [rising, full curve, poor fit]
24 | C=CCN1C(=O)c2ccc(C(=O)N(CCOC)c3c(N)n(CCCC)c(=O)[nH]c3=O)cc2C1=O |  |  | 2310 nM [rising, partial curve]
25 | CCCCn1c(N)c(N(CC(C)C)C(=O)c2cccs2)c(=O)[nH]c1=O | 1% |  | 
26 | CC(=O)Nc1ccc2nc(-c3cccn3C)[nH]c2c1 | 5.47% |  | 
27 | Nc1cc(=O)nc(SCC(=O)N2CCN(c3ccccc3)CC2)n1-c1ccc(F)cc1 | 23.9% |  | 20600 nM [rising, partial curve, poor fit]
28 | Brc1ccc2c(c1)OCCOCCOCCOCCOCCOCCO2 | -13.3% |  | 291 nM [falling, single point]
29 | O=C(CN1CCN(Cc2ccccc2Cl)C1=O)NCc1cccnc1 | 13.5% |  | 
30 | CCN(C(=O)Cn1c(=O)oc2ccccc21)c1ccc(C)c(C)c1 | 24.3% |  | 6510 nM [falling, single point]
31 | Cc1sc2nc(CSCC(=O)Nc3c(F)cccc3F)[nH]c(=O)c2c1C | 28.4% |  | 20600 nM [rising, single point]
32 | CC(=O)c1ccc2noc(-c3cccc(F)c3)c2c1 | 16.1% |  | 
33 | COCCCNC(=O)c1ccccc1N(Cc1ccccc1)S(=O)(=O)c1ccccc1 | 1.31% |  | 
34 | Cc1cccc(N2CCN(C(=O)COc3ccc4c(C)cc(=O)oc4c3C)CC2)c1C | -42.2% | 32600 nM [falling, single point] | 
35 | Cc1ccc(S(=O)(=O)N2CCC(=O)N(C(COCc3ccc(Cl)cc3)Cc3ccccc3)CC2)cc1 (centres undefined) | 0.902% |  | 1160 nM [rising, full curve, poor fit]
36 | CC(=O)Nc1ccc(N2C(=O)CSC2c2cccc(Br)c2)cc1 (centres undefined) | -19% |  | 
37 | CC1CCN(C(=O)c2[nH]cnc2C(=O)NC2CCN(C(=O)OC(C)(C)C)CC2)CC1 | 19.9% | 3660 nM [falling, single point] | 6510 nM [falling, single point]
38 | Cc1cccc2cc(CN(Cc3cccs3)C(c3nnnn3C3CCCC3)C(C)C)c(=O)[nH]c12 (centres undefined) | -31.2% | 5.17 nM [falling, full curve, poor fit] | 1300 nM [rising, partial curve]
39 | Cc1ccc(S(=O)(=O)Nc2ccccc2F)cc1C(=O)N1CCCC1 | -6.77% |  | 3260 nM [rising, full curve, poor fit]
40 | CCC(=O)N1CCN(c2ccc(NC(=O)COc3cccc(C)c3C)cc2)CC1 | 4.78% |  | 
41 | Cc1ccc(-c2nc(N/N=C/c3ccccc3[N+](=O)[O-])c3ccccc3n2)cc1 | -15.5% |  | 
